Measurements reported in PubChem BioAssay AID1259264 (Sanger Institute, 2017)
Purpose: 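Kinase-wide knock-down to find genes that strengthen targeted drug effects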 (primary screen). System: CL40 human colorectal cancer cells. Reagents: siRNA pool against human genes. Conditions: DMSO, or an anchor drug: BYL719 at 1 µM, cetuximab at 5 µg/ml, or trametinib at 10 nM. Detection: 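Viability as a fraction of non-targeting pool control (replicates averaged), control-based robust z-score, plus averaged synergy for each drug: BYL719 1 µM, cetuximab 5 µg/ml, trametinib 10 nM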. Scale: robust z-score, siRNA alone and viability, siRNA alone: higher = more viable cells; synergy score with BYL719: higher = stronger combined killing with BYL719; synergy score with cetuximab: higher = stronger combined killing with cetuximab. Active means: 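Essential call: siRNA with no drug reaches a robust z under -3 (low cell count); drug synergy scores do not affect it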. Meaning of the calls: active = essential (lowers viability alone); inactive = not essential.
Here is an unselected part of 794 reagents. Over the whole deposit, 15 (1.9%) got an active call. 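Calls rest on knock-down alone at z-score below -3; synergy scores with the three drugs do not decide them.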 Viability is capped at 1. Not all columns of the deposit are shown. The record does not give: the amount of reagent, the time to read-out.

| gene | robust z-score, siRNA alone | viability, siRNA alone (fraction of control) | synergy score with BYL719 | synergy score with cetuximab | Call |
| --- | --- | --- | --- | --- | --- |
| JAK2 (Janus kinase 2) | 0.539 | 1 | -0.0674 | -0.0174 | inactive |
| PRPS1L1 (phosphoribosyl pyrophosphate synthetase 1 like 1) | 0.539 | 1 | -0.156 | -0.0174 | inactive |
| ACVR1C (activin A receptor type 1C) | 0.539 | 1 | -0.0794 | -0.0174 | inactive |
| SIK3 (SIK family kinase 3) | -0.143 | 0.951 | -0.111 | -0.0655 | inactive |
| EIF2AK3 (eukaryotic translation initiation factor 2 alpha kinase 3) | 0.539 | 1 | -0.0966 | -0.0174 | inactive |
| CDK13 (cyclin dependent kinase 13) | 0.539 | 1 | -0.101 | -0.0174 | inactive |
| MVK (mevalonate kinase) | 0.539 | 1 | -0.146 | -0.0174 | inactive |
| AK3 (adenylate kinase 3) | 0.539 | 1 | 0.0259 | 0.0591 | inactive |
| AURKC (aurora kinase C) | 0.539 | 1 | -0.0889 | -0.0157 | inactive |
| CHD4 (chromodomain helicase DNA binding protein 4) | -1.4 | 0.861 | 0.0492 | -0.0376 | inactive |
| BTK (Bruton tyrosine kinase) | -0.343 | 0.937 | -0.087 | 0.0268 | inactive |
| RAF1 (Raf-1 proto-oncogene, serine/threonine kinase) | -1.51 | 0.853 | 0.0434 | -0.019 | inactive |
| HIPK2 (homeodomain interacting protein kinase 2) | 0.539 | 1 | -0.152 | -0.0174 | inactive |
| BRDT (bromodomain testis associated) | 0.539 | 1 | -0.156 | -0.0174 | inactive |
| MINK1 (misshapen like kinase 1) | 0.539 | 1 | -0.00535 | -0.0174 | inactive |
| GUCY2F (guanylate cyclase 2F, retinal) | 0.539 | 1 | -0.0596 | -0.0174 | inactive |
| NEK10 (NIMA related kinase 10) | 0.00196 | 0.961 | -0.0752 | 0.0111 | inactive |
| CDK4 (cyclin dependent kinase 4) | 0.539 | 1 | -0.107 | 0.00671 | inactive |
| POLR2B (RNA polymerase II subunit B) | -4.94 | 0.607 | -0.0265 | 0.0235 | active |
| GOLGA5 (golgin A5) | 0.539 | 1 | -0.0958 | -0.0174 | inactive |
| HUNK (hormonally up-regulated Neu-associated kinase) | -0.904 | 0.897 | 0.0342 | -0.0372 | inactive |
| ADK (adenosine kinase) | -0.261 | 0.943 | -0.0754 | -0.0738 | inactive |
| MAPK13 (mitogen-activated protein kinase 13) | 0.539 | 1 | -0.0431 | -0.0174 | inactive |
| PHKA2 (phosphorylase kinase regulatory subunit alpha 2) | -0.663 | 0.914 | -0.114 | -0.00797 | inactive |
| MAP3K12 (mitogen-activated protein kinase kinase kinase 12) | 0.539 | 1 | -0.137 | -0.0174 | inactive |
| SHPK (sedoheptulokinase) | -0.568 | 0.921 | -0.0679 | -0.0181 | inactive |
| PDK3 (pyruvate dehydrogenase kinase 3) | 0.539 | 1 | -0.0103 | -0.0174 | inactive |
| FN1 (fibronectin 1) | 0.539 | 1 | -0.109 | -0.0174 | inactive |
| KSR1 (kinase suppressor of ras 1) | -1.7 | 0.839 | 0.0259 | -0.132 | inactive |
| TTBK1 (tau tubulin kinase 1) | -0.806 | 0.904 | 0.0116 | -0.112 | inactive |
| ATR (ATR checkpoint kinase) | 0.539 | 1 | -0.0786 | 0.0521 | inactive |
| SRPK1 (SRSF protein kinase 1) | -0.227 | 0.945 | -0.156 | -0.0714 | inactive |
| SRGAP3 (SLIT-ROBO Rho GTPase activating protein 3) | 0.539 | 1 | -0.156 | -0.0174 | inactive |
| PRKAA2 (protein kinase AMP-activated catalytic subunit alpha 2) | -0.228 | 0.945 | -0.147 | -0.0715 | inactive |
| MYLK4 (myosin light chain kinase family member 4) | -1.24 | 0.872 | -0.136 | -0.00174 | inactive |
| GRK3 (G protein-coupled receptor kinase 3) | 0.539 | 1 | -0.146 | -0.0174 | inactive |
| AK7 (adenylate kinase 7) | -0.788 | 0.905 | -0.0558 | -0.105 | inactive |
| MAPK4 (mitogen-activated protein kinase 4) | 0.539 | 1 | -0.142 | -0.0174 | inactive |
| PRKAR1B (protein kinase cAMP-dependent type I regulatory subunit beta) | -1.23 | 0.874 | 0.0488 | -0.0152 | inactive |
| COASY (Coenzyme A synthase) | -1.34 | 0.865 | -0.0198 | -0.145 | inactive |
| EPHA3 (EPH receptor A3) | -0.577 | 0.92 | 0.0305 | -0.0855 | inactive |
| MED24 (mediator complex subunit 24) | 0.539 | 1 | -0.0962 | -0.0174 | inactive |
| FGFR2 (fibroblast growth factor receptor 2) | 0.539 | 1 | -0.031 | -0.0174 | inactive |
| VRK2 (VRK serine/threonine kinase 2) | 0.111 | 0.969 | -0.182 | -0.0476 | inactive |
| PANK3 (pantothenate kinase 3) | 0.539 | 1 | -0.156 | -0.0174 | inactive |
| DYRK1B | -0.41 | 0.932 | -0.0402 | -0.00407 | inactive |
| CTCF (CCCTC-binding factor) | -2.11 | 0.81 | -0.0243 | -0.0485 | inactive |
| STRADA (STE20 related adaptor alpha) | 0.539 | 1 | -0.047 | -0.0174 | inactive |
| PDPK1 (3-phosphoinositide dependent protein kinase 1) | -3.02 | 0.745 | -0.0929 | -0.0396 | active |
| OBSCN | 0.539 | 1 | -0.136 | -0.0174 | inactive |

Called active, among the entries above:
| gene | robust z-score, siRNA alone | viability, siRNA alone (fraction of control) | synergy score with BYL719 | synergy score with cetuximab | Call |
| --- | --- | --- | --- | --- | --- |
| POLR2B (RNA polymerase II subunit B) | -4.94 | 0.607 | -0.0265 | 0.0235 | active |
| PDPK1 (3-phosphoinositide dependent protein kinase 1) | -3.02 | 0.745 | -0.0929 | -0.0396 | active |
